Measurements published in the supplement of paper PMC12823440, “Inhibitors supercharge kinase turnover through native proteolytic circuits” (Nature, 2025).
Counter-ions that a name gives are not always drawn. Some of the results follow. The calls rarely recur for the same compound in another form.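 Kinases, fused to nanoluciferase, were expressed in K562 cells; luminescence was measured every 4 h from 2 to 18 h as percent of control (DMSO = 100%, positive control = 0%). A time point is decreased if signal falls significantly (2 sigma). Hits were called by the authors by a rule that is not shown; the count of time points alone does not decide it.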

Sequences of proteins named here, by UniProt entry; tags and fusion partners are left off. A change or cut given only in a name is not applied to a line headed by its entry.
UniProt O75460: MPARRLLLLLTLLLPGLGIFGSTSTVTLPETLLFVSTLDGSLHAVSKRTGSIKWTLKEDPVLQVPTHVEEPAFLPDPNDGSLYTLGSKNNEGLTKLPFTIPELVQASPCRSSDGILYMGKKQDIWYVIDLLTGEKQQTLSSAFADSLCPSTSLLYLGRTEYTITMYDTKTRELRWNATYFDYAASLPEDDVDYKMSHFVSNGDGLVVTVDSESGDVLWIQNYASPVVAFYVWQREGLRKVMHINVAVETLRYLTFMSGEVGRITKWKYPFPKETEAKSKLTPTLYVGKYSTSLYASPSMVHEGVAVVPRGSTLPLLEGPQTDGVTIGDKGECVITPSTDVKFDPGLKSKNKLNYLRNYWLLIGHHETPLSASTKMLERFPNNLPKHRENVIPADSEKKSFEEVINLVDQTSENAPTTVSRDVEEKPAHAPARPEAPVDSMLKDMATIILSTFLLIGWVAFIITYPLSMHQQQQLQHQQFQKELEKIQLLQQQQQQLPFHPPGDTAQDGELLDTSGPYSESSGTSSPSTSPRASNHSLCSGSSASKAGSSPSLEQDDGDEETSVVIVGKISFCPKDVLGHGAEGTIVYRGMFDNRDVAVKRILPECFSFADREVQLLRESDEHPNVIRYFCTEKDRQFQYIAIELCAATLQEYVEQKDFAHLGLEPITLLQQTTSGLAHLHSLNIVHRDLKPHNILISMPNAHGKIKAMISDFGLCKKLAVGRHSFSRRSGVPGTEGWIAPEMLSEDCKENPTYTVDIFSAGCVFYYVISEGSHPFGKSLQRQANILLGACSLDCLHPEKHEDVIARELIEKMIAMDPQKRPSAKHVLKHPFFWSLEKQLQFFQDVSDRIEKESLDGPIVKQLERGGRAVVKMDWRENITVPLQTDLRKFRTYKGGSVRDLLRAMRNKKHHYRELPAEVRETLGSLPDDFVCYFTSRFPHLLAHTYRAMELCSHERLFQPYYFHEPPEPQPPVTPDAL
UniProt P21802, whole entry, looked up: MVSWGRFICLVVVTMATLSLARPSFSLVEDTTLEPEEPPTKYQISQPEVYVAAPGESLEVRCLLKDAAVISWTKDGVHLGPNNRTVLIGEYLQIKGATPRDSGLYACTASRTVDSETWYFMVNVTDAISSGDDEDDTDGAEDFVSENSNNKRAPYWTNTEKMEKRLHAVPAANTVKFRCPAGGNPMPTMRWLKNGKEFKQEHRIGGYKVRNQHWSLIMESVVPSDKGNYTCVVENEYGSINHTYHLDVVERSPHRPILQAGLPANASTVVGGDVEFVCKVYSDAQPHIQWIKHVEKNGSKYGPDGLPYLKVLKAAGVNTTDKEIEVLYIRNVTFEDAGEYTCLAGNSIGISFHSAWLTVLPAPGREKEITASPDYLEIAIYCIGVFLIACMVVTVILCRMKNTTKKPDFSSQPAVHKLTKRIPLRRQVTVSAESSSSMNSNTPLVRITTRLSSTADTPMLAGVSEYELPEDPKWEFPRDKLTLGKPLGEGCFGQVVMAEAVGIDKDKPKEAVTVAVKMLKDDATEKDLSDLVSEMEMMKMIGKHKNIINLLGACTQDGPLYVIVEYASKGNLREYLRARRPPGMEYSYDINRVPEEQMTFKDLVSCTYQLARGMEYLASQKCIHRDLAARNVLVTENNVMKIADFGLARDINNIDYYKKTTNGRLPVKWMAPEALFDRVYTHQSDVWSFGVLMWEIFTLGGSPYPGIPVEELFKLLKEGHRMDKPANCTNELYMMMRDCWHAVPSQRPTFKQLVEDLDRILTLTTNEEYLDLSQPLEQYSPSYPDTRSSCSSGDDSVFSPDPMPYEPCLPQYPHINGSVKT
UniProt P22607, whole entry, looked up: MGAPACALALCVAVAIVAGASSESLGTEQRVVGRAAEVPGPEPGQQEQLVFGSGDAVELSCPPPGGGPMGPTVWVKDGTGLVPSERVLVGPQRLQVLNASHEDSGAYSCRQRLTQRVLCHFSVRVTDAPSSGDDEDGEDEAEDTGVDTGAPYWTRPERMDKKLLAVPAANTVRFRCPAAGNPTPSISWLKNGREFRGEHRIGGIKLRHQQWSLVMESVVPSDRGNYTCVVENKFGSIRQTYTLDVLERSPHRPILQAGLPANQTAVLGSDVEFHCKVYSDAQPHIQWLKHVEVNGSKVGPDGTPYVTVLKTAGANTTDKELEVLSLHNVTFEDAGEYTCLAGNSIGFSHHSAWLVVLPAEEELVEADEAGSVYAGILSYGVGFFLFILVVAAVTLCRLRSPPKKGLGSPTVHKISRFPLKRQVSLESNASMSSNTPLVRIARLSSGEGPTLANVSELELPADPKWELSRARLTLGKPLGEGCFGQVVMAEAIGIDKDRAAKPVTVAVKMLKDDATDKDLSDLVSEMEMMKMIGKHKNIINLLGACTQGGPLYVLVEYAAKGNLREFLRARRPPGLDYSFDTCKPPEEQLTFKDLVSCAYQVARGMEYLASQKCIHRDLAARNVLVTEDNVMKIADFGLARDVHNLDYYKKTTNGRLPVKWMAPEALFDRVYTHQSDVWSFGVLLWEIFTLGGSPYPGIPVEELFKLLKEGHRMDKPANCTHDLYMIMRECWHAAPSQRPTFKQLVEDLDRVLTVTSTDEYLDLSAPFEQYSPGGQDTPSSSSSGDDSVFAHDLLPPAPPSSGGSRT
UniProt P36888, whole entry: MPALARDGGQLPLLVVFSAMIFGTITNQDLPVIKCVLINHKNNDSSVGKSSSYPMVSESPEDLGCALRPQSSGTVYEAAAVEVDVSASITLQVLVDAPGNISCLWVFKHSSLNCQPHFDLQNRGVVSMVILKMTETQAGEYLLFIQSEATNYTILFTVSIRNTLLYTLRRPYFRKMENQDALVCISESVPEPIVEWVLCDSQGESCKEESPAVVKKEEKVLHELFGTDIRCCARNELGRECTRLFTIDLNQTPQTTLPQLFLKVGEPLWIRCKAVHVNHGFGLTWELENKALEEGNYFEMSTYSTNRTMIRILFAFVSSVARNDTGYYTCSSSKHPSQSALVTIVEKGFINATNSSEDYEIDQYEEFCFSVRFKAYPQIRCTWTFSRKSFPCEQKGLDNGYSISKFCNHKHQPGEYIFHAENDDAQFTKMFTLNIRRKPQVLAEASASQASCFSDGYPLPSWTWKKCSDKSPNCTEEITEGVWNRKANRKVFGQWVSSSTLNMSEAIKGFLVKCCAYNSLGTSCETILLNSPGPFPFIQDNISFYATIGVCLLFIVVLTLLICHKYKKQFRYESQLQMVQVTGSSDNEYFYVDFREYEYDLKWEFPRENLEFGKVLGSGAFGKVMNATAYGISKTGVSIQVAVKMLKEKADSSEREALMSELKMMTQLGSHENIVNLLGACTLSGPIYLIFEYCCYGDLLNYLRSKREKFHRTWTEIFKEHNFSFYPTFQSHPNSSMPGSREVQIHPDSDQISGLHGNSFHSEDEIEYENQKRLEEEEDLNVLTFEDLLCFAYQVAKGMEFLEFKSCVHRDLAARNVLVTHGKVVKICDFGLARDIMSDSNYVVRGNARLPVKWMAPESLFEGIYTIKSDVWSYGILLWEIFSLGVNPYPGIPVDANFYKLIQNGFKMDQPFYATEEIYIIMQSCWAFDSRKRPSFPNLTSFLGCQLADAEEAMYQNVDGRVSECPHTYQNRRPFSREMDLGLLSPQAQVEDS
UniProt P06241, whole entry, looked up: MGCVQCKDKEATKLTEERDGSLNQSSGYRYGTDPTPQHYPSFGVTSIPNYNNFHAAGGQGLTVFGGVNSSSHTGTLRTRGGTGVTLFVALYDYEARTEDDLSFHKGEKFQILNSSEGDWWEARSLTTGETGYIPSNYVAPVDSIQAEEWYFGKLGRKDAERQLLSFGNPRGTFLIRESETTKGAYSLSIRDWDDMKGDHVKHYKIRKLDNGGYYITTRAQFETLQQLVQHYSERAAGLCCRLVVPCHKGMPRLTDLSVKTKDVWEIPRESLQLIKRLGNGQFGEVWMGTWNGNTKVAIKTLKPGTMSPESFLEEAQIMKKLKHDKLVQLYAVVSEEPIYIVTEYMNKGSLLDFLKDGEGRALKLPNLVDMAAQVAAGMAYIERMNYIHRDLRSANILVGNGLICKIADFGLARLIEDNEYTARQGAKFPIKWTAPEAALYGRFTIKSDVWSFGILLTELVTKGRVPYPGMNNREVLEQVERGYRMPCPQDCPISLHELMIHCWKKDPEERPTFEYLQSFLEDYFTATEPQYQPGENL
UniProt P49840: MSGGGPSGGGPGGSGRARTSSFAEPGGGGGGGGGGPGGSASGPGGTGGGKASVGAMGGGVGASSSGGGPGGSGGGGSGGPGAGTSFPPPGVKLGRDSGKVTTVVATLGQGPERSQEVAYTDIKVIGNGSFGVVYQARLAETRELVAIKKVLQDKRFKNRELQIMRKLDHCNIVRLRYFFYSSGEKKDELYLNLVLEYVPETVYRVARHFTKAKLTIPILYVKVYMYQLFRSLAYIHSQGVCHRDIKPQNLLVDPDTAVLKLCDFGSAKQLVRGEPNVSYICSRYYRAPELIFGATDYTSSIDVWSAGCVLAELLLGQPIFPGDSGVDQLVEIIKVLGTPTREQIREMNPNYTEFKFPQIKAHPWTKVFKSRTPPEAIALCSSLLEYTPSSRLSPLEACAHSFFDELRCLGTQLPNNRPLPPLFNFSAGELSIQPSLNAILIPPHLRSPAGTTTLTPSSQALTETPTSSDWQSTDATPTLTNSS
UniProt P11362, whole entry, looked up: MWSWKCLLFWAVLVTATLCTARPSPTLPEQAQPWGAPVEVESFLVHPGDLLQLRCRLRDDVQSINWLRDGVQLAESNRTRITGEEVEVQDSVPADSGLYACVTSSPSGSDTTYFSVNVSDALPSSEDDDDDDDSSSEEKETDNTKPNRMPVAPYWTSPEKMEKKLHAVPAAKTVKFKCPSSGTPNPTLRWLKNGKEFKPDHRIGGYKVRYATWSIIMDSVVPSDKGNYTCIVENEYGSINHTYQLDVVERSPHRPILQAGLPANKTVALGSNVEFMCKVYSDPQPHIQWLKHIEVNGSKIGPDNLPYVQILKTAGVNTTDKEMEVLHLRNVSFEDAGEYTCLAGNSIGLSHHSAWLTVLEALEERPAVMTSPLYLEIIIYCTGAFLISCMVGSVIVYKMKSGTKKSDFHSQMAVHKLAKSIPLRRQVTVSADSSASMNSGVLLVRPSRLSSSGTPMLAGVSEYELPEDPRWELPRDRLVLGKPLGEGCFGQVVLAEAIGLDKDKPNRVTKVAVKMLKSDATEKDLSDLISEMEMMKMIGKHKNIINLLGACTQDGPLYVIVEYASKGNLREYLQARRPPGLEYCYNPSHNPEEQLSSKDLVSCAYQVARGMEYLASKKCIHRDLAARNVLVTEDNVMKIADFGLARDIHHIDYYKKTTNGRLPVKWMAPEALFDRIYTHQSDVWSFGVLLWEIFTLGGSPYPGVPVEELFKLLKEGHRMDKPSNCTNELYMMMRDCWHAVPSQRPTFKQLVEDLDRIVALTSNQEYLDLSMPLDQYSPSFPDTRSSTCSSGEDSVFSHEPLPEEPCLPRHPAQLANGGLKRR

What was measured:
Experiment in all cases: kinase-Nluc reporter destabilization hit call (1 = scored as downregulated) (binary); higher = compound decreases kinase abundance
Conditions in all cases: K562, 2-18 h
ERN1 = ERN1 (UniProt O75460)
FGFR2 = FGFR2 (UniProt P21802)
FGFR3 = FGFR3 (UniProt P22607)
FGR = FGR (UniProt P09769)
FLT3 = FLT3 (UniProt P36888)
FYN = FYN (UniProt P06241)
GSK3A = GSK3A (UniProt P49840)
HER2 = HER2 (UniProt P04626)
INSRR = INSRR (UniProt P14616)
FGFR1 = FGFR1 (UniProt P11362)

Measured: kinase-Nluc reporter destabilization hit call

O=S(=O)(c1cccc2c(O)nccc12)N1CCCNCC1 [Hydroxyfasudil (hydrochloride)]
inactive: ERN1; 10 µM 0 | FGFR2; 10 µM 0 | FGFR3; 10 µM 0 | FGR; 10 µM 0 | FLT3; 10 µM 0 | FYN; 10 µM 0 | GSK3A; 10 µM 0 | HER2; 10 µM 0 | INSRR; 10 µM 0

C[C@@H]1CN(C(=O)Nc2ccc(-c3nc(N4CCOCC4)c4cnn(CCCCCCC(=O)NO)c4n3)cc2)CCO1 [HDACs/mTOR Inhibitor 1]
inactive: ERN1; 10 µM 0 | FGFR1; 10 µM 0 | FGFR2; 10 µM 0 | FGFR3; 10 µM 0 | FGR; 10 µM 0 | FLT3; 10 µM 0 | FYN; 10 µM 0 | GSK3A; 10 µM 0 | HER2; 10 µM 0 | INSRR; 10 µM 0

COc1cc(N2CCC(N3CCN(C)CC3)CC2)ccc1Nc1ncc(Cl)c(Nc2ccccc2S(=O)(=O)C(C)C)n1
inactive: ERN1; 2.5 µM 0 | FGFR1; 2.5 µM 0 | FGFR2; 2.5 µM 0 | FGFR3; 2.5 µM 0 | FGR; 2.5 µM 0 | FYN; 2.5 µM 0 | GSK3A; 2.5 µM 0 | HER2; 2.5 µM 0 | INSRR; 2.5 µM 0

CC[C@@H]1C(=O)N(C)c2cnc(Nc3ccc(C(=O)NC4CCN(C)CC4)cc3OC)nc2N1C1CCCC1
inactive: ERN1; 10 µM 0 | FGFR1; 10 µM 0 | FGFR2; 10 µM 0 | FGFR3; 10 µM 0 | FGR; 10 µM 0 | FLT3; 10 µM 0 | FYN; 10 µM 0 | GSK3A; 10 µM 0 | HER2; 10 µM 0 | INSRR; 10 µM 0

Cc1cc2c(F)c(Oc3ncnn4cc(OC[C@@H](C)O)c(C)c34)ccc2[nH]1 [Brivanib]
inactive: ERN1; 10 µM 0 | FGFR2; 10 µM 0 | FGFR3; 10 µM 0 | FGR; 10 µM 0 | FLT3; 10 µM 0 | FYN; 10 µM 0 | GSK3A; 10 µM 0 | HER2; 10 µM 0 | INSRR; 10 µM 0

Nc1nc(Nc2ccc(S(N)(=O)=O)cc2)nn1C(=O)c1c(F)cccc1F
inactive: ERN1; 2.5 µM 0 | FGFR2; 2.5 µM 0 | FGFR3; 2.5 µM 0 | FGR; 2.5 µM 0 | FLT3; 2.5 µM 0 | FYN; 2.5 µM 0 | GSK3A; 2.5 µM 0 | HER2; 2.5 µM 0 | INSRR; 2.5 µM 0

CC(C)(C)n1nc(-c2ccc(Cl)cc2)c2c(N)ncnc21
inactive: ERN1; 10 µM 0 | FGFR1; 10 µM 0 | FGFR2; 10 µM 0 | FGFR3; 10 µM 0 | FGR; 10 µM 0 | FLT3; 10 µM 0 | FYN; 10 µM 0 | GSK3A; 10 µM 0 | HER2; 10 µM 0 | INSRR; 10 µM 0

O=C(Nc1cccc(Cl)c1)Nc1ncc(CCNc2ncnc3ccsc23)s1 [SNS-314 (mesylate)]
inactive: ERN1; 10 µM 0 | FGFR1; 10 µM 0 | FGFR2; 10 µM 0 | FGFR3; 10 µM 0 | FGR; 10 µM 0 | FLT3; 10 µM 0 | FYN; 10 µM 0 | GSK3A; 10 µM 0 | HER2; 10 µM 0 | INSRR; 10 µM 0

COc1ccc(-c2cc(C(=O)NN=C(C)c3ccc(OC)c(OC)c3)[nH]n2)cc1
active: HER2; 10 µM 1
inactive: ERN1; 10 µM 0 | FGFR1; 10 µM 0 | FGFR2; 10 µM 0 | FGFR3; 10 µM 0 | FGR; 10 µM 0 | FLT3; 10 µM 0 | FYN; 10 µM 0 | GSK3A; 10 µM 0 | INSRR; 10 µM 0

Cc1cc(Nc2cc(N3CCN(C)CC3)nc(/C=C/c3ccccc3)n2)n[nH]1
inactive: ERN1; 2.5 µM 0 | FGFR2; 2.5 µM 0 | FGFR3; 2.5 µM 0 | FGR; 2.5 µM 0 | FLT3; 2.5 µM 0 | FYN; 2.5 µM 0 | GSK3A; 2.5 µM 0 | HER2; 2.5 µM 0 | INSRR; 2.5 µM 0

Quoted from the results shown (four entries):
Cc1cc2c(F)c(Oc3ncnn4cc(OC[C@@H](C)O)c(C)c34)ccc2[nH]1 [Brivanib]
inactive: ERN1; 10 µM 0 | FGFR2; 10 µM 0 | FGFR3; 10 µM 0 | FGR; 10 µM 0 | FLT3; 10 µM 0 | FYN; 10 µM 0 | GSK3A; 10 µM 0 | HER2; 10 µM 0 | INSRR; 10 µM 0

Nc1nc(Nc2ccc(S(N)(=O)=O)cc2)nn1C(=O)c1c(F)cccc1F
inactive: ERN1; 2.5 µM 0 | FGFR2; 2.5 µM 0 | FGFR3; 2.5 µM 0 | FGR; 2.5 µM 0 | FLT3; 2.5 µM 0 | FYN; 2.5 µM 0 | GSK3A; 2.5 µM 0 | HER2; 2.5 µM 0 | INSRR; 2.5 µM 0

CC(C)(C)n1nc(-c2ccc(Cl)cc2)c2c(N)ncnc21
inactive: ERN1; 10 µM 0 | FGFR1; 10 µM 0 | FGFR2; 10 µM 0 | FGFR3; 10 µM 0 | FGR; 10 µM 0 | FLT3; 10 µM 0 | FYN; 10 µM 0 | GSK3A; 10 µM 0 | HER2; 10 µM 0 | INSRR; 10 µM 0

O=C(Nc1cccc(Cl)c1)Nc1ncc(CCNc2ncnc3ccsc23)s1 [SNS-314 (mesylate)]
inactive: ERN1; 10 µM 0 | FGFR1; 10 µM 0 | FGFR2; 10 µM 0 | FGFR3; 10 µM 0 | FGR; 10 µM 0 | FLT3; 10 µM 0 | FYN; 10 µM 0 | GSK3A; 10 µM 0 | HER2; 10 µM 0 | INSRR; 10 µM 0

The listing continues:

O=C(O)c1ccc(Nc2ncc3c(n2)-c2ccc(Cl)cc2C(c2c(F)cccc2F)=NC3)cc1
inactive: ERN1; 10 µM 0 | FGFR1; 10 µM 0 | FGFR2; 10 µM 0 | FGFR3; 10 µM 0 | FGR; 10 µM 0 | FLT3; 10 µM 0 | FYN; 10 µM 0 | GSK3A; 10 µM 0 | INSRR; 10 µM 0

Cc1ccc(-n2nc(C(C)(C)C)cc2NC(=O)Nc2ccc(OCCN3CCOCC3)c3ccccc23)cc1 [Doramapimod]
inactive: ERN1; 10 µM 0 | FGFR2; 10 µM 0 | FGFR3; 10 µM 0 | FGR; 10 µM 0 | FLT3; 10 µM 0 | FYN; 10 µM 0 | GSK3A; 10 µM 0 | HER2; 10 µM 0 | INSRR; 10 µM 0

Cc1ccc(Nc2nccc(N(C)c3ccc4c(C)n(C)nc4c3)n2)cc1S(N)(=O)=O [Pazopanib]
inactive: ERN1; 10 µM 0 | FGFR2; 10 µM 0 | FGFR3; 10 µM 0 | FGR; 10 µM 0 | FLT3; 10 µM 0 | GSK3A; 10 µM 0 | HER2; 10 µM 0 | INSRR; 10 µM 0

NC(=O)c1c(OCc2c(F)cc(Br)cc2F)nsc1NC(=O)NCCCCN1CCCC1
inactive: ERN1; 2.5 µM 0 | FGFR1; 2.5 µM 0 | FGFR2; 2.5 µM 0 | FGFR3; 2.5 µM 0 | FGR; 2.5 µM 0 | FLT3; 2.5 µM 0 | FYN; 2.5 µM 0 | GSK3A; 2.5 µM 0 | HER2; 2.5 µM 0 | INSRR; 2.5 µM 0

Cc1cc(Nc2cc(N3CCN(C)CC3)nc(/C=C/c3ccccc3)n2)n[nH]1 [ENMD-2076 (Tartrate)]
inactive: ERN1; 2.5 µM 0 | FGFR2; 2.5 µM 0 | FGFR3; 2.5 µM 0 | FGR; 2.5 µM 0 | FLT3; 2.5 µM 0 | FYN; 2.5 µM 0 | GSK3A; 2.5 µM 0 | HER2; 2.5 µM 0 | INSRR; 2.5 µM 0

CC1(C)CNc2cc(NC(=O)c3cccnc3NCc3ccncc3)ccc21 [Motesanib]
inactive: ERN1; 2.5 µM 0 | FGFR2; 2.5 µM 0 | FGFR3; 2.5 µM 0 | FGR; 2.5 µM 0 | FLT3; 2.5 µM 0 | FYN; 2.5 µM 0 | GSK3A; 2.5 µM 0 | HER2; 2.5 µM 0 | INSRR; 2.5 µM 0

CC(C)N(CCC(=O)c1ccc2ccccc2c1)Cc1ccccc1
inactive: ERN1; 10 µM 0 | FGFR1; 10 µM 0 | FGFR2; 10 µM 0 | FGFR3; 10 µM 0 | FGR; 10 µM 0 | FLT3; 10 µM 0 | FYN; 10 µM 0 | GSK3A; 10 µM 0 | HER2; 10 µM 0 | INSRR; 10 µM 0

Cc1cc2ncnn2cc1Nc1ncc2c(n1)n(C1CCOCC1)c(=O)n2C
inactive: ERN1; 10 µM 0 | FGR; 10 µM 0 | FLT3; 10 µM 0 | GSK3A; 10 µM 0 | HER2; 10 µM 0 | INSRR; 10 µM 0
